Data as given in PubChem BioAssay AID1259314 (Drosophila RNAi Screening Center, 2017)

Aim: 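Transmembrane protein genes affecting ATP after manganese overload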 (primary screen)
System: Drosophila S2R+ cells
Knock-down reagent: long dsRNA against Drosophila genes
Time to read-out: 5 days (4 days knock-down, then 1 day metal exposure)
Conditions: manganese chloride added to 15 mM for 24 hours
Detection: 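Luciferase ATP signal used as a proxy for viable cell number, reported as one averaged z-score per dsRNA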
Reading the numbers: mean ATP z-score: higher = more ATP than the plate average, more viable cells under manganese
Hit rule: 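Called active when the mean ATP z-score is above 1.5 or below -1.5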
Meaning of the calls: active = strong ATP change, up or down; inactive = no strong ATP change
The deposit covers about 3,100 reagents; below is an unselected part. 289 of all reagents (9.3%) count as active. 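Active includes both higher and lower ATP than plate average; check the z-score sign for direction.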 Reagent sequences are not shown. The record does not give: the amount of reagent.

predicted target	DRSC id	mean ATP z-score	Call
CG1246	DRSC08275	-0.0827	inactive
CG1246	DRSC39873	1.3	inactive
Syx1A	DRSC15359	-0.0168	inactive
Syx1A	DRSC21554	-0.0728	inactive
Alg9	DRSC14407	-0.549	inactive
Alg9	DRSC39513	-0.312	inactive
Gr57a	DRSC06401	-0.462	inactive
CG17646	DRSC00507	1.22	inactive
CG17646	DRSC39859	0.51	inactive
CG45049	DRSC16163	1.99	active
CG45049	DRSC23175	-0.417	inactive
subdued	DRSC15137	-0.138	inactive
subdued	DRSC39505	0.111	inactive
sev	DRSC20372	-0.521	inactive
sev	DRSC36615	0.691	inactive
sev	DRSC36616	-0.0911	inactive
alka	DRSC06136	-0.137	inactive
CG7990	DRSC19296	0.545	inactive
CG7990	DRSC23195	-0.624	inactive
CG7990	DRSC26580	0.00142	inactive
CG9826	DRSC04570	-0.303	inactive
fusl	DRSC02351	0.409	inactive
fusl	DRSC28283	-0.997	inactive
CG16904	DRSC15161	-0.135	inactive
CG16904	DRSC25306	0.152	inactive
CG10183	DRSC14203	0.535	inactive
CG10183	DRSC25343	0.186	inactive

Reagents listed above marked active, once more:
predicted target	DRSC id	mean ATP z-score	Call
CG45049	DRSC16163	1.99	active

Next records follow:
predicted target	DRSC id	mean ATP z-score	Call
Oamb	DRSC13433	0.405	inactive
Oamb	DRSC15120	0.614	inactive
Oamb	DRSC16763	0.0978	inactive
Kap-alpha3	DRSC16976	-0.398	inactive
Gr43a	DRSC06658	-0.275	inactive
Gr43a	DRSC39580	1.36	inactive
cry	DRSC16928	-0.733	inactive
cry	DRSC39669	0.0523	inactive
CG4576	DRSC15604	2.01	active
CG4576	DRSC26364	0.229	inactive
Proc-R	DRSC18410	0.101	inactive
Proc-R	DRSC39733	0.861	inactive
Gr22f	DRSC00076	0.191	inactive
Gr22f	DRSC26841	-0.45	inactive
CG4459	DRSC15582	-0.0518	inactive
CG8112	DRSC16377	0.194	inactive
CG8112	DRSC39422	-0.175	inactive
Vha16-5	DRSC02986	1.64	active
